Data taken from PubChem BioAssay AID248 (DTP/NCI, 2004).
The list does not hold the whole screen: it gathers tests that were run many times, whatever their T/C, doses with no T/C, and many T/C values between a quarter and a half above the control. Other doses and runs of a compound stand elsewhere. T/C is the treated group as % of the vehicle group. Some doses have a count of surviving animals in place of a T/C: the source files T/C as zero there, which appears to mark a toxic dose or a test without result, not a measured value. Some survivor counts are full or nearly so, which does not show that the dose was tolerated: the source hardly ever lists a survival T/C far under the control, and the zero likely stands for such cases as well. Counts of survivors are from the toxicity check (mostly the fifth day) where no day follows; animals may have died later. Schedule codes are those of the source, taken here to give the interval after Q, in days (D) or hours (H), and the number of doses after X. Some entries were tested several times; the values are given in rising order. Some schedules carry Z or #; the key to these is not given. For survival time, this PubChem deposit counts one and a half times the control or more as active, and values a quarter to a half above the control carry no call in these data; other NCI protocols may use other cut-offs. Some T/C values are followed by the survivors on the day toxicity was checked, most often the fifth; without a count, all were alive then.

Test system: L1210 leukemia ip in BDF1 mice, survival T/C
Assay: NCI In Vivo Anticancer Drug Screen. Data for tumor model L1210 Leukemia (intraperitoneal) in B6D2F1 (BDF1) mice
Details: T/C endpoint: mean survival time, higher T/C = longer survival
[1] = dose: 300.0 mg/kg/injection, schedule: Q01DX001 (ip), vehicle: saline
[2] = dose: 600.0 mg/kg/injection, schedule: Q01DX009 (ip), vehicle: water
[3] = dose: 200.0 mg/kg/injection, schedule: Q01DX001 (ip), vehicle: Klucel (hydroxypropylcellulose) (HPC)
[4] = dose: 400.0 mg/kg/injection, schedule: Q04DX002 (ip), vehicle: Klucel (hydroxypropylcellulose) (HPC)
[5] = dose: 400.0 mg/kg/injection, schedule: Q04DX003 (ip), vehicle: saline with Tween-80
[6] = dose: 150.0 mg/kg/injection, schedule: Q01DX001 (ip), vehicle: saline
[7] = dose: 400.0 mg/kg/injection, schedule: Q01DX009 (ip), vehicle: Klucel (hydroxypropylcellulose) (HPC)
[8] = dose: 400.0 mg/kg/injection, schedule: Q01DX001 (ip), vehicle: carboxymethylcellulose (CMC)
[9] = dose: 200.0 mg/kg/injection, schedule: Q04DX003 (ip), vehicle: Klucel (hydroxypropylcellulose) (HPC)
[10] = dose: 100.0 mg/kg/injection, schedule: Q01DX009 (ip), vehicle: Klucel (hydroxypropylcellulose) (HPC)

For `CC(C)OP(=O)(OC=C(Cl)Cl)OC(C)C`, the survivor count [1] was 3 of 6.

In the case of `CCOC(=O)c1ccc(OC(=O)Nc2ccc(F)cc2)cc1`, the survivor count (dose: 200.0 mg/kg/injection, schedule: Q01DX009 (ip), vehicle: carboxymethylcellulose (CMC)) is reported as 4 of 6.

With `CCOC(=O)c1ccc(OC(=O)Nc2ccc(Cl)cc2OC)cc1` the survivor count (dose: 400.0 mg/kg/injection, schedule: Q01DX009 (ip), vehicle: saline) was 4 of 6.

With `COc1ccc(Cc2c3cc(OC)c(OC)cc3cc[n+]2Cc2ccc(N(CCCl)CCCl)cc2)cc1OC` the survivor count (dose: 300.0 mg/kg/injection, schedule: Q01DX001 (ip), vehicle: carboxymethylcellulose (CMC)) was 0 of 6.

With `[N-]=[N+]=CC(=O)NCC(=O)NN=C(CO)CO` the T/C (dose: 270.0 mg/kg/injection, schedule: Q01DX009 (ip), vehicle: water) was 134 % of control, the T/C (dose: 400.0 mg/kg/injection, schedule: Q01DX009 (ip), vehicle: water, evaluated on day 30) was 131 % of control and the T/C (dose: 400.0 mg/kg/injection, schedule: Q01DX009 (ip), vehicle: water, run until all animals had died) was 128 % of control. The T/C [2] was 148 % of control, the survivor count [2] was 5 of 6 and the T/C (dose: 900.0 mg/kg/injection, schedule: Q01DX009 (ip), vehicle: water) was 131 % of control [4 of 6 alive].

`Cc1nc(N)[nH]c(=O)c1CCCNC(=O)c1cccc(CBr)c1` was tested, and the survivor count (dose: 100.0 mg/kg/injection, schedule: Q04DX002 (ip), vehicle: Klucel (hydroxypropylcellulose) (HPC)) was 3 of 3, the survivor count [3] was 3 of 6 and the survivor count [4] was 1 of 3.

With `CC(=O)c1ccccc1OC(=S)N(C)C` the survivor count [5] was 4 of 6.

In the case of `COC(=O)CCS`, the survivor count (dose: 75.0 mg/kg/injection, schedule: Q01DX001 (ip), vehicle: saline) is reported as 0 of 6, the survivor count [6] is reported as 6 of 6 and the survivor count [1] is reported as 0 of 6.

In the case of `Clc1ccc(C(c2ccc(Cl)cc2)c2ccccn2)cc1`, the survivor count [7] is reported as 2 of 6.

`O=C(Nc1ccc(Br)cc1)Oc1ccccc1C(=O)OCc1ccccc1` was tested, and the survivor count [4] was 3 of 3.

For `O=[N+]([O-])c1cccc(O)c1`, the survivor count (dose: 400.0 mg/kg/injection, schedule: Q04DX003 (ip), vehicle: other) was 5 of 6.

For `O=C(O)CCNc1ccc(Cl)cc1[N+](=O)[O-]`, the survivor count [4] was 0 of 3.

`Nc1nc(Cl)[nH]c1-c1ncn[nH]1` was tested, and the survivor count (dose: 400.0 mg/kg/injection, schedule: Q01DX001 (ip), vehicle: saline) was 0 of 6.

With `COc1ccc(CCNC(=O)Cc2cc(OCc3ccccc3)c(OC)cc2[N+](=O)[O-])cc1OC` the survivor count (dose: 100.0 mg/kg/injection, schedule: Q01DX001 (ip), vehicle: water) was 6 of 6.

For `Cn1c(CN(CCCl)CCCl)nc2c1c(=O)[nH]c(=O)n2C`, the T/C (dose: 178.0 mg/kg/injection, schedule: Q01DX001 (ip), vehicle: carboxymethylcellulose (CMC)) was 126 % of control, the T/C [8] was 126 [3 of 4 alive] and 131 % of control and the survivor count (dose: 600.0 mg/kg/injection, schedule: Q01DX001 (ip), vehicle: carboxymethylcellulose (CMC)) was 4 of 4.

In the case of `COc1cccc(NC(=O)Nc2ccccc2C(F)(F)F)c1`, the survivor count (dose: 25.0 mg/kg/injection, schedule: Q01DX009 (ip), vehicle: saline with Tween-80) is reported as 6 of 6, the survivor count (dose: 100.0 mg/kg/injection, schedule: Q01DX009 (ip), vehicle: saline with Tween-80) is reported as 6 of 6 and the survivor count (dose: 200.0 mg/kg/injection, schedule: Q01DX009 (ip), vehicle: saline with Tween-80) is reported as 6 of 6. The survivor count (dose: 400.0 mg/kg/injection, schedule: Q01DX009 (ip), vehicle: saline with Tween-80) was 6 of 6.

For `N#CCCCOc1ccc(Cl)cc1`, the survivor count (dose: 100.0 mg/kg/injection, schedule: Q04DX003 (ip), vehicle: Klucel (hydroxypropylcellulose) (HPC)) was 1 of 6, the survivor count [9] was 5 of 6 and the survivor count (dose: 400.0 mg/kg/injection, schedule: Q04DX003 (ip), vehicle: Klucel (hydroxypropylcellulose) (HPC)) was 0 of 6.

For `Nc1ncnc(NC2CCCCC2)n1`, the survivor count [10] was 1 of 6 and the survivor count [9] was 0 of 6.

`NNC(=S)NCCc1ccccc1` was tested, and the survivor count [10] was 3 of 6 and 4 of 6, the survivor count (dose: 200.0 mg/kg/injection, schedule: Q01DX009 (ip), vehicle: Klucel (hydroxypropylcellulose) (HPC)) was 0 of 6 and the survivor count [7] was 0 of 6.

For `CNC1CC2CCC1(C)C2(C)C` (stereo unspecified), the survivor count (dose: 200.0 mg/kg/injection, schedule: Q04DX002 (ip), vehicle: saline) was 0 of 3 and the survivor count (dose: 400.0 mg/kg/injection, schedule: Q04DX002 (ip), vehicle: saline) was 0 of 3.

`Cc1cc(C)c(N(CC(=O)O)S(=O)(=O)c2ccccc2)c(C)c1I` was tested, and the survivor count (dose: 150.0 mg/kg/injection, schedule: Q04DX003 (ip), vehicle: Klucel (hydroxypropylcellulose) (HPC)) was 6 of 6 and the survivor count (dose: 300.0 mg/kg/injection, schedule: Q04DX003 (ip), vehicle: Klucel (hydroxypropylcellulose) (HPC)) was 6 of 6.

In the case of `O=N[O-].O=N[O-].O=N[O-].O=N[O-].O=N[O-].O=N[O-].[Co+3].[Co].[NH2-].[NH2-].[NH2-].[NH2-].[NH2-].[NH2-]`, the survivor count (dose: 100.0 mg/kg/injection, schedule: Q04DX002 (ip), vehicle: saline with Tween-80) is reported as 0 of 3.

`C=C(C(=O)O)C(=O)O` was tested, and the survivor count [5] was 2 of 6.

With `COc1ccc(C=O)c(Cl)c1OC` the survivor count [7] was 3 of 6.

For `Nc1ccc(C(=O)O)cc1S(=O)(=O)O`, the survivor count [3] was 1 of 3 and the survivor count (dose: 400.0 mg/kg/injection, schedule: Q01DX001 (ip), vehicle: Klucel (hydroxypropylcellulose) (HPC)) was 0 of 3.

For `CCCC(=O)Nc1cc(OC)ccc1OC`, the survivor count [7] was 0 of 6.

`O=C(Nc1ccc(C2=NCCN2)cc1)Nc1ccccc1NC(=O)Nc1ccc(C2=NCCN2)cc1` was tested, and the survivor count (dose: 25.0 mg/kg/injection, schedule: Q01DX Z (ip), vehicle: water) was 4 of 6 and 5 of 6, the survivor count (dose: 50.0 mg/kg/injection, schedule: Q01DX Z (ip), vehicle: water) was 0 of 6 and the survivor count (dose: 100.0 mg/kg/injection, schedule: Q01DX Z (ip), vehicle: water) was 0 of 6. The survivor count (dose: 200.0 mg/kg/injection, schedule: Q01DX Z (ip), vehicle: water) was 0 of 6.

In the case of `ClC(Cl)(Cl)SSSC(Cl)(Cl)Cl`, the survivor count (dose: 75.0 mg/kg/injection, schedule: Q01DX001 (ip), vehicle: other) is reported as 2 of 6, the survivor count (dose: 150.0 mg/kg/injection, schedule: Q01DX001 (ip), vehicle: other) is reported as 0 of 6 and the survivor count (dose: 300.0 mg/kg/injection, schedule: Q01DX001 (ip), vehicle: other) is reported as 0 of 6.

`C/C=C(\CC)C1(C(C)C)C(=O)NC(=O)NC1=O` was tested, and the survivor count [6] was 1 of 6 and the survivor count [1] was 0 of 6.

`NC(=O)CNC1=C(N2CC2)C(=O)C(NCC(N)=O)=C(N2CC2)C1=O` was tested, and the T/C (dose: 1.25 mg/kg/injection, schedule: Q01DX009 (ip), vehicle: saline) was 128 % of control, the T/C (dose: 2.0 mg/kg/injection, schedule: Q04DX003 (ip), vehicle: saline) was 144 % of control and the T/C (dose: 2.5 mg/kg/injection, schedule: Q01DX009 (ip), vehicle: saline) was 133 % of control. The T/C (dose: 4.0 mg/kg/injection, schedule: Q04DX003 (ip), vehicle: saline) was 143 % of control, the T/C (dose: 5.0 mg/kg/injection, schedule: Q01DX009 (ip), vehicle: saline) was 142 % of control and the T/C (dose: 5.2 mg/kg/injection, schedule: Q04DX003 (ip), vehicle: saline) was 126 % of control. For the same molecule, the T/C (dose: 8.0 mg/kg/injection, schedule: Q04DX003 (ip), vehicle: saline) was 132 % of control.

For `CCCCCCNP(=O)(OCC)OCC`, the survivor count [8] was 2 of 4.

`O/N=C\CCC/C=N/O` was tested, and the survivor count [7] was 5 of 6.
